Data taken from paper PMC7314798.
No constants are given. Whether binding was seen depends on the method and setting. Sequences can lack the tags named with a protein.

Target: T1, recombinant, LPS-free His-tagged human GBP1 (guanylate-binding protein 1) (human), P32455
T1 chain: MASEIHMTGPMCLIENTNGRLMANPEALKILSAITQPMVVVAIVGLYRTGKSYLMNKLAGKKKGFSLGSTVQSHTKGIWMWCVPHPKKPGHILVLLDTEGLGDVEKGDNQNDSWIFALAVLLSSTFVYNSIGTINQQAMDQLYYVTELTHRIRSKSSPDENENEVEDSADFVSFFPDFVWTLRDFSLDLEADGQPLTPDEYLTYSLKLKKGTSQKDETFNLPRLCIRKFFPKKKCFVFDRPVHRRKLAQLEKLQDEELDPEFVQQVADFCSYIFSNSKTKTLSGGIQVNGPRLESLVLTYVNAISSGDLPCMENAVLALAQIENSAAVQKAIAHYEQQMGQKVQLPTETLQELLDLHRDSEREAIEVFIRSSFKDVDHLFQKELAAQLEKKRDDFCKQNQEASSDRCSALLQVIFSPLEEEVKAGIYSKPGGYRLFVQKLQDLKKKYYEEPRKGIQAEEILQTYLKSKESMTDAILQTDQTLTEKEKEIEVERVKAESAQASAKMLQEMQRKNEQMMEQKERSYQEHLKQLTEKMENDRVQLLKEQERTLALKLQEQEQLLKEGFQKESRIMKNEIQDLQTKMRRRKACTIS
Experiment: SEC; Superdex 200 10/30 GL, running buffer 50 mM Tris pH 7.4, 150 mM NaCl; GBP1 (1 µM) kept on ice alone for 5 h before injection; size estimated with molecular weight standards; both purified
Details: remark: other sources report otherwise

B1: recombinant, LPS-free His-tagged human GBP1 (guanylate-binding protein 1), P32455 1-592 (protein)
chain: T1 chain
For B1, which binding is on record?
The binding was “no binding (tested: 1 µM)”.
